Experimental data taken from EP1529535A1, “Isolation of a circulating human lipolytic peptide” (IPF PharmaCeuticals GmbH, priority 2003, dated 2005).
At least one peptide structure holds a part that was inferred or is arguable (an end, a ring closure or a residue).

Test system: 3T3L1-derived differentiated mouse adipocytes
Assay type: cell-based
Conditions: differentiated 3T3L1 adipocytes treated for five hours in serum-free medium; glycerol in supernatant, absorbance 540 nm; triplicates, representative of two independent experiments; read-out: EC50 for lipolysis
Procedure: According to the invention 3T3L1-derived differentiated mouse adipocytes can be used as appropriate cell-system. These cells are treated with fractions of human hemofiltrate and identified using a glycerol-estimation method (GPO-Trinder reagent, Sigma, Deisenhofen, Germany) lipolytic activity. […] It was subsequently isolated in several chromatographic steps using reverse-phase and cation-exchange chromatographic material. 3T3L1 cells were obtained from ATCC. They were grown in DMEM with 10% FCS, penicillin, streptomycin, and L-glutamine for proliferation. For differentiation into the mature adipocyte phenotype, the cells were plated onto 96 well plates (Costar) and treated for three days with differentiation medium (DMEM with 10% FCS, dexamethasone, insulin, L-glutamine and 8-Br-cAMP) and subsequently for three to six days with sustainment medium (DMEM with 10% FCS and L-glutamine). Cells differentiated as described above were then treated for five hours with the hemofiltrate fractions diluted in serum-free medium. An aliquot of the cell supernatant was mixed with the glycerol-estimation-solution (GPO-Trinder Reagent, Sigma, Garching, Germany) and incubated for 15 minutes. Then the absorbance was measured at 540 nm in a 96 well plate ELISA reader (Dynex). […] The colored product is measured at 540 nm in a spectrophotometer. […]

CSCC[C@H](NC(=O)[C@H](CCCNC(=N)N)NC(=O)[C@H](Cc1ccc(O)cc1)NC(=O)[C@@H]1CCCN1C(=O)CNC(=O)[C@H](CCC(=O)O)NC(=O)[C@H](CC(=O)O)NC(=O)[C@H](CCCCN)NC(=O)[C@H](CCCCN)NC(=O)[C@H](CCC(=O)O)NC(=O)[C@H](C)N)C(=O)N[C@@H](CCC(=O)O)C(=O)N[C@@H](Cc1c[nH]cn1)C(=O)N[C@@H](Cc1ccccc1)C(=O)N[C@@H](CCCNC(=N)N)C(=O)N[C@@H](Cc1c[nH]c2ccccc12)C(=O)NCC(=O)N[C@@H](CO)C(=O)N1CCC[C@H]1C(=O)N1CCC[C@H]1C(=O)N[C@@H](CCCCN)C(=O)N[C@@H](CC(=O)O)C(=O)O [β-MSH, aekkdegp yrmehfrwgs ppkd]
EC50: ~0.02 µM
